PubChem BioAssay AID1259424 – University of Nebraska Medical Center, 2018
Aim: 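Rank knockdowns across the genome by resemblance to the KSR1 depletion profile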 (primary screen). Cell system: human HCT116 colon cancer cells. Reagent: siRNA pool against human genes, 50 nM. Measured: 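Log2 levels of six mRNAs (branched-DNA multiplex), adjusted by two reference genes and the non-targeting median, then scored against the average KSR1 knockdown pattern as Pearson r and euclidean distance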. Reading the numbers: mean correlation with KSR1 profile: higher = expression change more like KSR1 knockdown.
The whole screen tested about 14,000 reagents; below is an unselected part. 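Higher correlation or smaller distance means closer resemblance to KSR1 loss; control wells, including KSR1 knockdowns, recur on many plates.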 Not all columns of the deposit are shown. Not given: the time to read-out.

KRT1 | mean correlation with KSR1 profile = -0.645
TNFSF13B | mean correlation with KSR1 profile = 0.72
CD274 | mean correlation with KSR1 profile = 0.118
MPP2 | mean correlation with KSR1 profile = -0.1
DOK5 | mean correlation with KSR1 profile = -0.146
CAPN9 | mean correlation with KSR1 profile = 0.259
BLOC1S4 | mean correlation with KSR1 profile = -0.102
PDE11A | mean correlation with KSR1 profile = 0.0262
TRAPPC2L | mean correlation with KSR1 profile = -0.192
GABRA4 | mean correlation with KSR1 profile = -0.262

Continued (4 carried over from the part before).
BLOC1S4 | mean correlation with KSR1 profile = -0.102
PDE11A | mean correlation with KSR1 profile = 0.0262
TRAPPC2L | mean correlation with KSR1 profile = -0.192
GABRA4 | mean correlation with KSR1 profile = -0.262
ADPRHL1 | mean correlation with KSR1 profile = -0.0875
PRCP | mean correlation with KSR1 profile = 0.236
ZNF669 | mean correlation with KSR1 profile = 0.246
UQCR11 | mean correlation with KSR1 profile = -0.694
EIF3E | mean correlation with KSR1 profile = -0.216
ADAMTS6 | mean correlation with KSR1 profile = -0.219
UFD1 | mean correlation with KSR1 profile = 0.0223
YBX1 | mean correlation with KSR1 profile = -0.808
KIF5C | mean correlation with KSR1 profile = -0.323
ORMDL2 | mean correlation with KSR1 profile = 0.507
TUBGCP2 | mean correlation with KSR1 profile = -0.335
ACOXL | mean correlation with KSR1 profile = 0.139
DNAJC11 | mean correlation with KSR1 profile = 0.372
KYAT1 | mean correlation with KSR1 profile = -0.114
FLNB | mean correlation with KSR1 profile = -0.336
KIF20A | mean correlation with KSR1 profile = -0.141
RPP21 | mean correlation with KSR1 profile = 0.442
VCY | mean correlation with KSR1 profile = -0.257
